Assay: Laboratory scale continuous filtration experiment, PFA added continuously into feed
Conditions: 19.8 ppm active substance continuously in feed, 15 bar, sea salt 2 g/l, 20° C.
Procedure: The impact of PFA on membrane was further studied by a laboratory scale continuous filtration experiment. The type of membrane used in the experiment was brackish water membrane (FilmTec BW30LE).
The continuous filtration has been done in parallel. From a single brackish water tank the water was pumped to two parallel lines with flat sheet cells having similar brackish water membrane. In one line PFA was added continuously into feed and in other line (control) there was no PFA addition. The filtration conditions were as follows: pressure 15 bar, salt (sea salt): 2 g/l, Temperature: 20° C., flow rate: 48 l/h, PFA dosing rate: 6.5 g/h equilibrium solution having PFA active substance concentration 14 weight-% (=19.8 ppm active substance/l of brackish water). Flux and conductivity of permeate and concentrate were monitored and collected over time (for 30 days).

O=COO [Performic acid, performic acid]
Initial salt rejection: 98%
Final salt rejection (30 days): 98%

Reference: patent US10118131B2, “Method for preventing microbial growth on a filtration membrane” (KEMIRA OYJ, priority 2011, dated 2018)
